{
  "sequences": {"note": "Amino acid sequences for entries named in this document (tags omitted). A change or cut given only in a name is not applied to a line headed by its entry.", "UniProt P9WQA1, whole entry, looked up, stated change not applied": "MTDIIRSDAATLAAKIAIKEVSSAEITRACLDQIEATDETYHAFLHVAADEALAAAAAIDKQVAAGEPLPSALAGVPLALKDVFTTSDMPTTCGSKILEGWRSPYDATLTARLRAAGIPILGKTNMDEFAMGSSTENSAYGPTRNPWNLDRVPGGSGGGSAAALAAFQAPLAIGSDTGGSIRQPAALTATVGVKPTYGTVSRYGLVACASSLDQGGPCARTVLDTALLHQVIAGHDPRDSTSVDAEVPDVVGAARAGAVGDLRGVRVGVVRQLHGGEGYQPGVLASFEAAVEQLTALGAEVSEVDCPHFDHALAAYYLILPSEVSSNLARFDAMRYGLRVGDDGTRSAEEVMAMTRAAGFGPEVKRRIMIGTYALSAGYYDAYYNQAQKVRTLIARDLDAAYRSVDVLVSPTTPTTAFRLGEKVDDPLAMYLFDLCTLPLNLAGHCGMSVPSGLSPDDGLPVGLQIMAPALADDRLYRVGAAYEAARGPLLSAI"},
  "source": "paper PMC8406222",
  "target": "M. tuberculosis GatB with C-terminal 6xHis tag (M. tuberculosis) (UniProt P9WN61)",
  "assay": "tandem affinity co-purification (Ni-NTA, then Strep-Tactin)",
  "note": "These are yes or no findings as the source states them, for the method shown. Some entries that bind do so weakly or less than the wild type.",
  "data": [
    {"substance": "M. tuberculosis GatA-K61N (from UniProt P9WQA1 1-494)", "values": [
      {"measurement": "binding", "value": "binds"}
    ]}
  ]
}
